Taken from: PubChem BioAssay AID504791 (Drosophila RNAi Screening Center, 2011)
Assay: 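Genes of the fly required for silencing by miRNA, siRNA or endo-siRNA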 (primary screen). System: Drosophila S2-derived reporter cells. Knock-down reagent: long dsRNA against Drosophila genes, about 150-250 ng dsRNA per well (siRNA assay); about 80-120 ng (miRNA assay). Duration: about 5 days (siRNA assay); about 4 days (miRNA assay). Conditions: copper sulfate induction of reporters: 25 µM (siRNA assay); 200 mM stated (miRNA assay), 1-2 days before reading. Measurement: 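Per-well ratio of Renilla over firefly light, expressed relative to that plate's average ratio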. Active means: 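First-pass picks had plate-scaled ratios over 1.5 for the siRNA assay, over 1.6 for the miRNA assay, or under 0.6; two distinct dsRNAs had to score alike on retest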.
The screen tested about 23,000 reagents; below is a random part of those that have a named target and a result. In the full data, 199 (0.86%) got an active call. 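Plate-scaled ratios behind the calls are not deposited; printed light signals are raw; many rows marked increased or decreased are still called inactive.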 Unmarked entries are inactive. A plus sign joins genes that one reagent is predicted to hit. No sequences are given here. The record does not give: the direction of the score.

Target gene | amplicon | stable siRNA reporter change | miRNA reporter change | stable assay Renilla, run 1 (luminescence) | stable assay firefly, run 1 (luminescence)
Gbeta5 | DRSC17754 | – | – | 6099 | 3.57e5
CG15865 | DRSC19733 | – | – | 4692 | 3.61e5
Stim | DRSC20158 | – | – | 9819 | 6.96e5
kkv | DRSC12315 | – | – | 8115 | 5.47e5
Dnaaf6 | DRSC10473 | – | – | 8886 | 4.18e5
ND-49L | DRSC14437 | – | – | 8098 | 3.79e5
CG12123 | DRSC17818 | – | – | 8764 | 4.27e5
CG5002 | DRSC06911 | – | – | 11935 | 6.44e5
CG14811 | DRSC17962 | – | – | 5738 | 4.27e5
CG15734 | DRSC19701 | – | – | 3723 | 2.89e5
CG14106 | DRSC10109 | – | – | 6067 | 3.46e5
CG5335 | DRSC06931 | – | – | 12081 | 3.45e5
CG13048 | DRSC09929 | – | – | 7179 | 3.70e5
Klf15 | DRSC17742 | – | – | 5863 | 3.38e5
CG11679 | DRSC19415 | – | – | 6191 | 4.03e5
CG14511 | DRSC14863 | – | – | 4844 | 2.86e5
CG2652 | DRSC18501 | – | – | 4387 | 3.92e5
CG2652 | DRSC22576 | – | – | 4655 | 4.11e5
ClpP | DRSC02806 | – | – | 32776 | 7.15e5
hgo | DRSC03544 | – | – | 7768 | 4.19e5
mal | DRSC20581 | – | – | 8069 | 4.36e5
Dap160 | DRSC03313 | – | – | 7817 | 6.16e5
jv | DRSC08831 | – | – | 4728 | 3.24e5
jv | DRSC08832 | – | – | 5152 | 4.09e5
EloC | DRSC07423 | – | reporter ratio lowered past the hit cutoff (active) | 4935 | 4.15e5
CG32640 + CG32641 | DRSC22885 | – | – | 4015 | 4.00e5
CG12479 | DRSC19459 | – | – | 5179 | 4.92e5
CG14563 | DRSC11724 | – | – | 6066 | 4.44e5
CG3163 | DRSC04341 | – | – | 10671 | 1.87e6
Mcm10 | DRSC03162 | – | – | 95528 | 1.31e6
sw + Sdic4 + Sdic3 + 2 more | DRSC20696 | – | – | 5910 | 5.07e5
Usp10 | DRSC08282 | – | – | 11598 | 2.83e5
Usp10 | DRSC08373 | – | – | 7240 | 2.98e5
dlp | DRSC10281 | – | – | 6947 | 2.01e5
dlp | DRSC10472 | – | – | 6772 | 3.18e5
Amacr | DRSC03198 | – | – | 9921 | 5.03e5
CG7222 | DRSC07019 | – | – | 7639 | 4.06e5
shams | DRSC16590 | – | – | 5718 | 3.54e5
CG14739 | DRSC14959 | – | – | 5667 | 3.91e5
Schip1 | DRSC02851 | – | – | 7360 | 4.10e5
CG4770 | DRSC15639 | – | – | 7818 | 4.06e5
Sema2b | DRSC05609 | – | – | 6086 | 3.97e5
Sema2b | DRSC05611 | – | – | 7183 | 4.71e5
Sema2b | DRSC06867 | – | – | 5734 | 3.39e5
CG12341 | DRSC06133 | – | – | 6383 | 3.57e5
CG3609 | DRSC00620 | – | – | 7850 | 3.63e5
ru | DRSC08258 | – | – | 6946 | 3.53e5
Lmpt | DRSC09450 | reporter ratio raised past the hit cutoff | – | 6587 | 2.80e5
Lmpt | DRSC09864 | – | – | 6234 | 3.29e5
Lmpt | DRSC09865 | – | – | 7295 | 2.81e5
Lmpt | DRSC09866 | – | – | 6668 | 3.38e5
Lmpt | DRSC11107 | – | – | 6970 | 3.48e5
Lmpt | DRSC21738 | – | – | 8821 | 4.47e5
Lmpt | DRSC22921 | – | – | 5088 | 5.88e5
Rab9 | DRSC03281 | – | – | 7251 | 5.25e5
tj | DRSC02011 | – | – | 6543 | 3.49e5
Myt1 | DRSC11228 | – | – | 4868 | 3.50e5
CG3323 | DRSC18303 | – | – | 5883 | 2.93e5
U3-55K | DRSC05982 | – | – | 5675 | 3.33e5
Not11 | DRSC04204 | – | – | 5820 | 4.79e5
Tsp5D | DRSC18380 | – | – | 5546 | 3.08e5
GATAe | DRSC14223 | reporter ratio raised past the hit cutoff | – | 3812 | 1.42e5
GATAe | DRSC23209 | – | – | 3943 | 3.42e5
Cdk9 | DRSC04601 | – | – | 3351 | 1.44e5
GstT1 | DRSC06243 | – | – | 6546 | 3.47e5
GNBP2 | DRSC10404 | – | – | 8691 | 2.96e5
CG7214 | DRSC03028 | – | – | 9298 | 3.52e5
CG7214 | DRSC21869 | – | – | 8682 | 6.08e5
CG4250 | DRSC04455 | – | – | 8609 | 4.96e5
rudhira | DRSC19821 | – | – | 5955 | 2.69e5
rudhira | DRSC22111 | – | – | 9546 | 5.97e5
rudhira | DRSC23144 | – | – | 5435 | 3.60e5
bma | DRSC09896 | – | – | 5360 | 4.29e5
bma | DRSC10164 | – | – | 5614 | 3.55e5
twit | DRSC03210 | – | – | 20925 | 5.28e5
Dnaaf5 | DRSC13032 | – | – | 5155 | 4.57e5
Usp7 | DRSC18909 | – | – | 6319 | 6.08e5
Usp7 | DRSC19604 | – | – | 3947 | 3.67e5
Oat | DRSC11043 | – | – | 10813 | 5.77e5
PMCA | DRSC17113 | – | – | 7834 | 3.77e5
PMCA | DRSC17114 | – | – | 7870 | 3.95e5
PMCA | DRSC17154 | – | – | 7746 | 3.82e5
Acbp3 | DRSC11022 | – | – | 5868 | 4.36e5

7 neighbouring entries from above, for reference:
Target gene | amplicon | stable siRNA reporter change | miRNA reporter change | stable assay Renilla, run 1 (luminescence) | stable assay firefly, run 1 (luminescence)
CG4770 | DRSC15639 | – | – | 7818 | 4.06e5
Sema2b | DRSC05609 | – | – | 6086 | 3.97e5
Sema2b | DRSC05611 | – | – | 7183 | 4.71e5
Sema2b | DRSC06867 | – | – | 5734 | 3.39e5
CG12341 | DRSC06133 | – | – | 6383 | 3.57e5
CG3609 | DRSC00620 | – | – | 7850 | 3.63e5
ru | DRSC08258 | – | – | 6946 | 3.53e5
